This is one part of the list.
Each sequence was assayed against OsWRKY34 (Oryza sativa, UniProt Q0JBA9 1-250) (assay: protein-binding microarray (RPBM); PBS, 2% BSA, 51.3 ng/ul salmon testes DNA, 50 uM zinc acetate, 200 nM TF, 25 C, 1 h; high values mean tight binding). Conditions: protein: recombinant; tags: N-terminal polyhistidine and DsRed monomer fusion (pET32a); label: CyDye5-dUTP incorporated in the synthesized complementary strand; 3' TTTTT single-stranded linker to array surface; dsDNA, one strand shown.
Procedure, shortened: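 The binding signal is fluorescence intensity per array feature (arbitrary units). Readings came from an Axon 4000B scanner after a washed, 2% BSA-blocked, double-stranded custom Agilent array had been incubated for 1 h at 25 °C with 200 nM protein and 50 µM zinc acetate. The protein was a Ni–NTA-purified transcription factor fused N-terminally to polyhistidine and DsRed, expressed in E. coli BL21-CodonPlus.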

Protein sequences, listed by entry. Tags and fused reporters are not part of them.
UniProt Q0JBA9, entry or part of it: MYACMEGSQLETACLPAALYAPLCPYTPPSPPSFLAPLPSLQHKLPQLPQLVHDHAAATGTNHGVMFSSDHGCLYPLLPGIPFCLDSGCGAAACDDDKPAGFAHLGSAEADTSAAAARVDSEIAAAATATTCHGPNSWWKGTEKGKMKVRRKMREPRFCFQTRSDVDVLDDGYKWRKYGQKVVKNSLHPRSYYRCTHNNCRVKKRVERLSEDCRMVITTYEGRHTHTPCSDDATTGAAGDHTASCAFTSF

Sequence	binding signal
ACCTGTCAGTGGGCCCCACCCCGCACTGGACCCACCTATCCGGAGTCACCTAGTGCAG	9250 fluorescence intensity (a.u.)
CCGCCGTTGACGAACTTGGTGAGCGTCTTCTTGCCCTTGGCGGAGTCACCTAGTGCAG	9030 fluorescence intensity (a.u.)
TAAGTCTATTTTTGGTCCCTCAACTCTGTGGGTTGTGTTTCGGAGTCACCTAGTGCAG	9660 fluorescence intensity (a.u.)
TATTCCCTCACACTATTTATTGTATGCTTCACCACTTTACCGGAGTCACCTAGTGCAG	8220 fluorescence intensity (a.u.)
CCATCTATCATCCGCATCTCAGCTCGTTGCCCAGCATCTTCGGAGTCACCTAGTGCAG	10100 fluorescence intensity (a.u.)
CCCTTCTTTTCCGTTGCCCTATCACTAGATCTGGTCACTACGGAGTCACCTAGTGCAG	9520 fluorescence intensity (a.u.)
TCTCCTGTCGTTGCCACACCGTCTTCTCTCTTCTCCTCCGCGGAGTCACCTAGTGCAG	9320 fluorescence intensity (a.u.)
ATGTGCTGTAAATTAAATCATGGTGTTCATATTTTGGCCCCGGAGTCACCTAGTGCAG	8060 fluorescence intensity (a.u.)
TCCCAACCACACCCACCCACCCGCCCAATCCATCCACCAACGGAGTCACCTAGTGCAG	8860 fluorescence intensity (a.u.)
ACTGCTTATTTTTTTCGTCTCCTCCATGCTCCTGCTAGTTCGGAGTCACCTAGTGCAG	10300 fluorescence intensity (a.u.)
GGTATGACATATCTAGTTTTACGGTTGGGGATGTCTATGTCGGAGTCACCTAGTGCAG	9240 fluorescence intensity (a.u.)
CAAGTTGCATTGTTCCTGTGGTGTTTTACTAACTTATTATCGGAGTCACCTAGTGCAG	14700 fluorescence intensity (a.u.)
TGTTTTTCCATTTCTCGTTACTTGGTTGTTTAATTTGTTTCGGAGTCACCTAGTGCAG	15900 fluorescence intensity (a.u.)
ACCCTATTCCCATGGTCTCTCTCTCCATCATCTAAAGGTTCGGAGTCACCTAGTGCAG	10500 fluorescence intensity (a.u.)
TTTTGTAACACGCTTTGTAGGCCTTCGCTAATCCTCATGTCGGAGTCACCTAGTGCAG	8570 fluorescence intensity (a.u.)
CCGGACCACGCCCACCACCCAAAACCCTCCGGCTCATTCTCGGAGTCACCTAGTGCAG	12300 fluorescence intensity (a.u.)
CGCTCGCGTCGCGCCCATCTCCACCAATCCACCACCGCCACGGAGTCACCTAGTGCAG	11100 fluorescence intensity (a.u.)
TCCCCACTCGGCAGCTCGCCATTCCACCACCACCGCGCCGCGGAGTCACCTAGTGCAG	8090 fluorescence intensity (a.u.)
CATCAAAAATTTTATACACACATAAACTTTCAACTTTTCCCGGAGTCACCTAGTGCAG	9960 fluorescence intensity (a.u.)
GAGTTCTGTTATTCCCTTTGTAATCTGTTGTTTCTATCATCGGAGTCACCTAGTGCAG	8540 fluorescence intensity (a.u.)
CAGGTGGTATTTGTATGGTGATTAATTTACTACTTGTGTACGGAGTCACCTAGTGCAG	9200 fluorescence intensity (a.u.)
GGCGTGGGGTGGTTGATCTCCTCCTCCTCCTCTTCGTCGGCGGAGTCACCTAGTGCAG	8740 fluorescence intensity (a.u.)
GGAGATCATCCTCGCCCCGCCGCCGCCGCCGCCGCCGCCGCGGAGTCACCTAGTGCAG	8350 fluorescence intensity (a.u.)
GTCTCTATTTTTATGTGCACTTGTTGGATGGAGCGGTCAACGGAGTCACCTAGTGCAG	8430 fluorescence intensity (a.u.)
AGCTGCTAATTACTGTACACCTGTCACCTCTGGCAGCAGACGGAGTCACCTAGTGCAG	8760 fluorescence intensity (a.u.)
TTTATGGTTGCCACTTTTCTTGTTTTAATATGTTATTTCTCGGAGTCACCTAGTGCAG	8860 fluorescence intensity (a.u.)
CTGGAATGAGTGGTGGTTGATTGTTTAGTGTTTACTGTTCCGGAGTCACCTAGTGCAG	8470 fluorescence intensity (a.u.)

Sequence	binding signal
TTGCTGCCCATTTCTATTCCACACTTGCATGCAACTCAATCGGAGTCACCTAGTGCAG	14700 fluorescence intensity (a.u.)
CCTCTAAAGCTGTACTCTGCAAAACATGCATCTACTCATTCGGAGTCACCTAGTGCAG	8720 fluorescence intensity (a.u.)
CAGCCCACAACCACATCGACCCTATATAAACCGACGAGGACGGAGTCACCTAGTGCAG	8560 fluorescence intensity (a.u.)
ACATCACCACCCACCTCACCCTGCCGCTCCCGAGCGCGATCGGAGTCACCTAGTGCAG	9140 fluorescence intensity (a.u.)
TAACTATCCTCTATTTCTTTATTTGACCTATAGTGTAGATCGGAGTCACCTAGTGCAG	8510 fluorescence intensity (a.u.)
TATTTTCTTCCTCTATTTTATTTCTTCAGTACCTTCTAAGCGGAGTCACCTAGTGCAG	8660 fluorescence intensity (a.u.)
GTCCATCACCGAACGAACAGCCCACAGAAACCCCAAAAACCGGAGTCACCTAGTGCAG	8220 fluorescence intensity (a.u.)
ATCTTACGGTATCCATTATCTATTTACGTACATTTTCTTTCGGAGTCACCTAGTGCAG	8180 fluorescence intensity (a.u.)
CGAAAATGGTTTGCTTCGTAGGATCGTTATTTTGCTTGTTCGGAGTCACCTAGTGCAG	10800 fluorescence intensity (a.u.)
CTATTTGCAACCAAATTTGTCATGTTCTTTTTTTTTACATCGGAGTCACCTAGTGCAG	11400 fluorescence intensity (a.u.)
TGTGGTGCGTCTCCTCGTGCAGTTTTTGCCCTTGATTTGACGGAGTCACCTAGTGCAG	11800 fluorescence intensity (a.u.)
GATTTGGTGGGTTATAATTTTATAGTAAGAGGGGATTTTACGGAGTCACCTAGTGCAG	16100 fluorescence intensity (a.u.)
TATAAATACGTGATGTTTAATCTTCCATTTTCAATCCAATCGGAGTCACCTAGTGCAG	8030 fluorescence intensity (a.u.)
TCCACTAAACTGGTCCGTCACCCTCGCTGCCCGCTCTGAGCGGAGTCACCTAGTGCAG	9330 fluorescence intensity (a.u.)
TGTGTGTGTCTCAGTCCTCGTTTCTCTTCTCCGGCCGCCGCGGAGTCACCTAGTGCAG	11500 fluorescence intensity (a.u.)
ACTTGTAGCGCTTGGAAAGTTCTGTAGTTGTTTTTTTGCCCGGAGTCACCTAGTGCAG	8550 fluorescence intensity (a.u.)
TCGCAACTCCACCTTCTTCCCACGCTCTATTGGGTTTAAACGGAGTCACCTAGTGCAG	8810 fluorescence intensity (a.u.)
CCCGAGATCCCACCCACCGCATCCGACTATCCGAGACGAGCGGAGTCACCTAGTGCAG	9570 fluorescence intensity (a.u.)
ATCCTGGAAGCTTGCTGCTGCTGCCTTTTTTATTAATCTCCGGAGTCACCTAGTGCAG	8330 fluorescence intensity (a.u.)
AGGTGTGATTATTGTTCTGTTTGGCGCCATTATTATCTAACGGAGTCACCTAGTGCAG	11200 fluorescence intensity (a.u.)
CAAGCTCGCCGGCCCCGCCCAGATCGGCGGCCTCCGGCGCCGGAGTCACCTAGTGCAG	8380 fluorescence intensity (a.u.)
AATATCTTTGTGTCTGTCTGTCTCTTGCTGGACTCTGCTTCGGAGTCACCTAGTGCAG	11000 fluorescence intensity (a.u.)
CGCGGCGCGGCGTGGGTGGGTGTGTGTGGCCGCCTTAAACCGGAGTCACCTAGTGCAG	8460 fluorescence intensity (a.u.)
AACTGGTTCATTCGTAAACTAGTCCTATCAGATCTGTTTGCGGAGTCACCTAGTGCAG	8180 fluorescence intensity (a.u.)
ATTCCATAGTAATATTTGTCTTGTCCTACTTCTGATTTCTCGGAGTCACCTAGTGCAG	12500 fluorescence intensity (a.u.)
CCGGGTGGTTGGGTTTGGTGCTTTCCGATAGGCACGAGCTCGGAGTCACCTAGTGCAG	8860 fluorescence intensity (a.u.)
GTAGTAGTTTGGTAATAGTAGTAGGGGTGCCTTATTTTTTCGGAGTCACCTAGTGCAG	9370 fluorescence intensity (a.u.)

Another view of some results above.
Sequence | binding signal
TATTTTCTTCCTCTATTTTATTTCTTCAGTACCTTCTAAGCGGAGTCACCTAGTGCAG | 8660 fluorescence intensity (a.u.)
GTCCATCACCGAACGAACAGCCCACAGAAACCCCAAAAACCGGAGTCACCTAGTGCAG | 8220 fluorescence intensity (a.u.)
ATCTTACGGTATCCATTATCTATTTACGTACATTTTCTTTCGGAGTCACCTAGTGCAG | 8180 fluorescence intensity (a.u.)

Source: publication PMC7819943, “Rice protein-binding microarrays: a tool to detect cis-acting elements near promoter regions in rice”
